Results reported in the supplement of paper PMC10849652.
The other results are listed elsewhere or left out.

Amino acid sequences for entries named in this document (tags omitted). A change or cut given only in a name is not applied to a line headed by its entry.
UniProt Q14696: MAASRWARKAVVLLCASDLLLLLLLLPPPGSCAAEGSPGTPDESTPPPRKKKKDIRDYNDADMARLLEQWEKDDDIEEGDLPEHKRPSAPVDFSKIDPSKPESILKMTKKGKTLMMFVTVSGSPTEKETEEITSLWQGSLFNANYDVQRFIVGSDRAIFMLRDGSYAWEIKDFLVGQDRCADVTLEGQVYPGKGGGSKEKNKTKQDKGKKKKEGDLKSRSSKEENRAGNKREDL
UniProt P49736, whole entry, looked up: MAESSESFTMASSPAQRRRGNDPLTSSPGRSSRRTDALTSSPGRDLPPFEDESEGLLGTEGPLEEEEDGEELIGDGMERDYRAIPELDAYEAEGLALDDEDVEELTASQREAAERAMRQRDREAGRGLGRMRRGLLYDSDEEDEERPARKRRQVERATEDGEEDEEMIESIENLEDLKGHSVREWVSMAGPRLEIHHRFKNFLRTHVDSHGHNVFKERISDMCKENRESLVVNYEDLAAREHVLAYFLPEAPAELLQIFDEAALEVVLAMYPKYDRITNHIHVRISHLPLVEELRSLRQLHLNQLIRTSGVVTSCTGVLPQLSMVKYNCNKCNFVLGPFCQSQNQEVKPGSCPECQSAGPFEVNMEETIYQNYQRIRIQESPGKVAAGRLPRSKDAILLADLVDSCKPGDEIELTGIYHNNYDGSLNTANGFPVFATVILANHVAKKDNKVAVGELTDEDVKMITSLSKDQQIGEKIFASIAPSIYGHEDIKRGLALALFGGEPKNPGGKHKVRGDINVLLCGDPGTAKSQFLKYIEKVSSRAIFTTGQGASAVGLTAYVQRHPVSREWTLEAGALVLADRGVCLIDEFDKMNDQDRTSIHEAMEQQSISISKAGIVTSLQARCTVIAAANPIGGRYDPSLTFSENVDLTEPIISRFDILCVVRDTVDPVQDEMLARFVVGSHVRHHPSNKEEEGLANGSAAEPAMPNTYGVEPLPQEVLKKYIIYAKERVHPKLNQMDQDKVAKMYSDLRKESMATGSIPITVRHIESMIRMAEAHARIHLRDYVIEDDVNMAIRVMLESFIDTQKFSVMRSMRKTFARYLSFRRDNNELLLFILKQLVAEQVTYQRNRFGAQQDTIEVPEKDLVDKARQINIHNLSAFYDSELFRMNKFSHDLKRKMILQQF
UniProt Q9BV79: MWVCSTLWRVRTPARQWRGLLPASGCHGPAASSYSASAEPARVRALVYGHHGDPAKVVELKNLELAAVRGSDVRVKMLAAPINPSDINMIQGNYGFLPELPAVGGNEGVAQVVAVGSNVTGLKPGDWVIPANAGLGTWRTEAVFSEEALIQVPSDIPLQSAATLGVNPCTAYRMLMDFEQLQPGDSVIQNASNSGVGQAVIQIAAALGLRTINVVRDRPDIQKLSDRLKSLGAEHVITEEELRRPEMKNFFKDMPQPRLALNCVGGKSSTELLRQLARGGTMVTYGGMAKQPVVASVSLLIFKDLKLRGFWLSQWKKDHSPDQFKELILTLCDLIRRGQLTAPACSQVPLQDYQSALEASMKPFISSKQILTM
UniProt Q10469: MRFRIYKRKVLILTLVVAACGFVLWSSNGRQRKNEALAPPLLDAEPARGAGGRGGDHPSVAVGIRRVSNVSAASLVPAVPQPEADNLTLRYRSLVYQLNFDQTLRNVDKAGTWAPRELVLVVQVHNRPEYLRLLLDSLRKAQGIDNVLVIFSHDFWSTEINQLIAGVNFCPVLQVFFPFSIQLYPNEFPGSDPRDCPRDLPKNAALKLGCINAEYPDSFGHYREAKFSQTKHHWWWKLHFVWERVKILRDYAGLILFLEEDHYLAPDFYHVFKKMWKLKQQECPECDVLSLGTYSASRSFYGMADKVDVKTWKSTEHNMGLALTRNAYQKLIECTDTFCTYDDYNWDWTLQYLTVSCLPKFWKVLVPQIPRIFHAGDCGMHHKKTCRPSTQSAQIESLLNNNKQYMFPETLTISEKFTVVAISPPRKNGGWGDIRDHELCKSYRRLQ
UniProt P56270: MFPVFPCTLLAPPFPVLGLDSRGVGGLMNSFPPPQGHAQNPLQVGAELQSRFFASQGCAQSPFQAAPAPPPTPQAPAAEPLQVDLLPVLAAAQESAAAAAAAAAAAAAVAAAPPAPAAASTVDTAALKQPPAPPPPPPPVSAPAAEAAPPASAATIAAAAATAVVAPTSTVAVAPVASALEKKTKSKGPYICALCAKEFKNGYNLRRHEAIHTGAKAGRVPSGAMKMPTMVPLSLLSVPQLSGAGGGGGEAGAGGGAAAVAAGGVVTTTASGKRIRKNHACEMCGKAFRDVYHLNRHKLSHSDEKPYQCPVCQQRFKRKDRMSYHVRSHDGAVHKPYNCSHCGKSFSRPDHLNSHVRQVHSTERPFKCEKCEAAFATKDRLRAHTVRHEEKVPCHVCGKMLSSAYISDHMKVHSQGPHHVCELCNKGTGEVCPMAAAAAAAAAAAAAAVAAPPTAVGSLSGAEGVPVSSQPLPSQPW
UniProt P26572: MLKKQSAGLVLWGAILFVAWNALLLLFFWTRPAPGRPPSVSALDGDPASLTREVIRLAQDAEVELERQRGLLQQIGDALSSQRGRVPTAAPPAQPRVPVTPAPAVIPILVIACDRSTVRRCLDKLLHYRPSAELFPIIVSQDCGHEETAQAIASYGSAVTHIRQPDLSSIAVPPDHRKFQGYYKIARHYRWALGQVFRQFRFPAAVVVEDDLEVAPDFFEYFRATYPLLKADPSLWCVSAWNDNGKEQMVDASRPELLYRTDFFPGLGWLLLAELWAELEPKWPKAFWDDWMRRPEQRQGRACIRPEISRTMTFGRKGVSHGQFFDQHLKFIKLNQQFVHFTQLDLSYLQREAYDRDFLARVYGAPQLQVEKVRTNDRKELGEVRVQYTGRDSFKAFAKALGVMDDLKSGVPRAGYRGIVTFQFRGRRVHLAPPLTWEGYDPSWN
UniProt Q9ULK4: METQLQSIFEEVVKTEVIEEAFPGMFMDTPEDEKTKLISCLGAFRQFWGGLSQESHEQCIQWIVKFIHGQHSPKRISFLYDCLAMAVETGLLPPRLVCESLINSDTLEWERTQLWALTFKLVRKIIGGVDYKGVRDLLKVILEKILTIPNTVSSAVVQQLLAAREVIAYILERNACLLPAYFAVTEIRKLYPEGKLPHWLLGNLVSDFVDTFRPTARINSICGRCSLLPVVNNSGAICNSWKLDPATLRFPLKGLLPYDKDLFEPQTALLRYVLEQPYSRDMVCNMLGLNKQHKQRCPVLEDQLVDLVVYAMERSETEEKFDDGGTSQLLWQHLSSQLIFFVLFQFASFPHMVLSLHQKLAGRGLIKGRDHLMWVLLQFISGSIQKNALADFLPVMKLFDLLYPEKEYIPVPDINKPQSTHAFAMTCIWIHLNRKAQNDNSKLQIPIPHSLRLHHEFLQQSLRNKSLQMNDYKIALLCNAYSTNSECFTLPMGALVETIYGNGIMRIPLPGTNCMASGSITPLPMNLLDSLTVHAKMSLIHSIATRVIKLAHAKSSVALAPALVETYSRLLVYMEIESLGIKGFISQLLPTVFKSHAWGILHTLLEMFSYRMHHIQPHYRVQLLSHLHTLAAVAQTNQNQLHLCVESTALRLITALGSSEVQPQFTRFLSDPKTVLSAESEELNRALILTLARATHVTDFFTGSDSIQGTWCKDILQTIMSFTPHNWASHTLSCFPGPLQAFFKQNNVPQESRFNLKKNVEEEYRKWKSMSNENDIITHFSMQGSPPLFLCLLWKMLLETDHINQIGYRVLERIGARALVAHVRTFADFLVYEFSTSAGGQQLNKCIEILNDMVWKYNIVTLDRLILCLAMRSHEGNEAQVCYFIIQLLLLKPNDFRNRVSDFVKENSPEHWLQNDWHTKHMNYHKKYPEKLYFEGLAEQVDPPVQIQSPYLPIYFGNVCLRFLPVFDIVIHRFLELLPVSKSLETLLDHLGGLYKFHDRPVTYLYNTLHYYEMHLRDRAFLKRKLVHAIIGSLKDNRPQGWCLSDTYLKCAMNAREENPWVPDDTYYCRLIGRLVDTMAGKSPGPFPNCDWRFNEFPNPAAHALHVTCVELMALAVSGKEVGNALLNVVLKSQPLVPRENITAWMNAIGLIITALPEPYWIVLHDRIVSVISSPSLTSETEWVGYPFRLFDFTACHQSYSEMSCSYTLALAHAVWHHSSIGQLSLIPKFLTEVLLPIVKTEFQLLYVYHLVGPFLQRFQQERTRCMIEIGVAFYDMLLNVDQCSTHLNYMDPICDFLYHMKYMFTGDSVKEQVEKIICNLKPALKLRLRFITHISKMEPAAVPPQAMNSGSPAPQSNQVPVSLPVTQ
UniProt Q9NPJ6: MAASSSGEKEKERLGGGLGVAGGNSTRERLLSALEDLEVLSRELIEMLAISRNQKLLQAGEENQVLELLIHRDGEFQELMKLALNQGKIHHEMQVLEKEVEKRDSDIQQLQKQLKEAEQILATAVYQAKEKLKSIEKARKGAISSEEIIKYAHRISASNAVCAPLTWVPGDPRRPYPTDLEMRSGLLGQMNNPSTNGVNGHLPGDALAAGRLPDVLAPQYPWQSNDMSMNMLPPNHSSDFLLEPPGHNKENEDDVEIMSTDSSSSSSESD
UniProt Q8WXB1: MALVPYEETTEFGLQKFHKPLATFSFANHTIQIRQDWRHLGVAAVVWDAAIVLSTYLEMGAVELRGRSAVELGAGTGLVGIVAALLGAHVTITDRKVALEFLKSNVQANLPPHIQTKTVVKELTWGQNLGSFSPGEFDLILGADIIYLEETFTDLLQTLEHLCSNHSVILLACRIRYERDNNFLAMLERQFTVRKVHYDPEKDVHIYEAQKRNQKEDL
UniProt Q9NZL9, whole entry, looked up: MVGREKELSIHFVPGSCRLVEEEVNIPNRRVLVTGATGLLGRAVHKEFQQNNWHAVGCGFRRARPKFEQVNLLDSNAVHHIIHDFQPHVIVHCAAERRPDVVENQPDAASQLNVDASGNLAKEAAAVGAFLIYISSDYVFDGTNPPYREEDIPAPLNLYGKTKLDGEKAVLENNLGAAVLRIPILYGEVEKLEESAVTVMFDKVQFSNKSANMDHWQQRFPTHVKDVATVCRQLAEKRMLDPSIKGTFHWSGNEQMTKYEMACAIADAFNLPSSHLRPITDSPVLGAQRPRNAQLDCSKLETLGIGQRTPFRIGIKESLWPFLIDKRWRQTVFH
UniProt Q9NWR8: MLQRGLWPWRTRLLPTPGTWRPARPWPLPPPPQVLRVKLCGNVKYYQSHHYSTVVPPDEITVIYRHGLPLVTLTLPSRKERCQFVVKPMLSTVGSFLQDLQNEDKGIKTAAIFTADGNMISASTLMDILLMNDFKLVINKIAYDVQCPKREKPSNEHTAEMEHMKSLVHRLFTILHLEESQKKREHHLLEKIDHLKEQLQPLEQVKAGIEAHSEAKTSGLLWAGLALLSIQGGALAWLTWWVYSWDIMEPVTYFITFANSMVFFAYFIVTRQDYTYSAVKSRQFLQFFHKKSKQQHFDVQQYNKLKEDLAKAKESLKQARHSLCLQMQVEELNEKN
UniProt Q12866: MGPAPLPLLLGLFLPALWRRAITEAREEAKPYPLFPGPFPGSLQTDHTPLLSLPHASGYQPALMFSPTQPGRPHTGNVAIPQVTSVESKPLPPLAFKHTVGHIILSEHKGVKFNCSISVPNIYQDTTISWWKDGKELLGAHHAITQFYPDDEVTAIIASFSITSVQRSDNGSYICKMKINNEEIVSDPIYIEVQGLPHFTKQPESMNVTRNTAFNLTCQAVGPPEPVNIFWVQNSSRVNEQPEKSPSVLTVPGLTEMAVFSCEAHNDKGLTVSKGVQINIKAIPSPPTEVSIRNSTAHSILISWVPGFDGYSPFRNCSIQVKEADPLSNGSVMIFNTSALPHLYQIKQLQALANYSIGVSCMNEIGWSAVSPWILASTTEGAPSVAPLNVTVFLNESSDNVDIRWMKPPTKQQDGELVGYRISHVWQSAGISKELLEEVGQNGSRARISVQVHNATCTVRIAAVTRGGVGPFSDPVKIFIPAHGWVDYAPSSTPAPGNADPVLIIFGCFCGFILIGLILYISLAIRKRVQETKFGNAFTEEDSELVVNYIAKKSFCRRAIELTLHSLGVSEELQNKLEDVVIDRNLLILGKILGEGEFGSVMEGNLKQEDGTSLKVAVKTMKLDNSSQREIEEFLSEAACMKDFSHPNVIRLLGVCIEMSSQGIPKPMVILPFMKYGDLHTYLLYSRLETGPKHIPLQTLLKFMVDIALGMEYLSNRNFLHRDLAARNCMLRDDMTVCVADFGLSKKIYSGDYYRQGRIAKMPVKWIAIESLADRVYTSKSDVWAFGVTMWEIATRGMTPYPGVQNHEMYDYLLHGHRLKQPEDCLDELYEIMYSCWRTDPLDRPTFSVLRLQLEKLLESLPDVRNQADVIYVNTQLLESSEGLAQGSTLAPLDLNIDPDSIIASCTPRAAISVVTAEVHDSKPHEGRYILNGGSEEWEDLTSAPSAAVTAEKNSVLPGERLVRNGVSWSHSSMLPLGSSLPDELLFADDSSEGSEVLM

Experiments:
Assay in all cases: log2 fold change, soluble protein after heating vs DMSO (PISA); higher = thermal stabilisation; K562 cells, 10 uM, 30 min; active = over 0.2 and 3.5 SD of the protein, either way, in both replicates (recomputed)
[1] = compound: CN1CCN(CCOc2cc(OC3CCOCC3)c3c(Nc4c(Cl)ccc5c4OCO5)ncnc3c2)CC1 [saracatinib]
Summary of the method: (§1)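 For each measurement, 10 μM compound was applied for 30 min to K562 cells at 2×10^6 cells/mL. Aliquots were heated for 3 min across 48°C-58°C, pooled, and extracted in PBS with 0.5% NP-40 at 4°C; the supernatant after 21,000xg for 90 min was soluble protein. This was quantified by TMTpro 16plex LC-MS/MS with channel sums equalised, and thermal stability was reported relative to control samples from duplicates, on a log2 fold-change scale.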

[2] = compound: CN1CCN(c2nc(C3=C(c4c[nH]c5ccccc45)C(=O)NC3=O)c3ccccc3n2)CC1 [sotrastaurin]
Summary of the method: as §1

[3] = compound: CN1CC[C@H](c2c(O)cc(O)c3c(=O)cc(-c4ccccc4Cl)oc23)[C@H](O)C1 [alvocidib]
Summary of the method: as §1

[4] = compound: CN1CCc2c(c3ccccc3n2Cc2ccc(C(=O)NO)cc2)C1 [Tubastatin A]
Summary of the method: as §1

[5] = compound: CNC(=O)C1=CC=CC=C1NC2=NC(=NC=C2Cl)NC3=C(C=C(C=C3)N4CCOCC4)OC
Summary of the method: as §1

[6] = compound: CNC(=O)c1ccc(Nc2ncc(C(F)(F)F)c(NCc3nccnc3N(C)S(C)(=O)=O)n2)cc1 [defactinib]
Summary of the method: as §1

[7] = compound: CNCc1ccc(-c2[nH]c3cc(F)cc4c3c2CCNC4=O)cc1 [rucaparib]
Summary of the method: as §1

[8] = compound: CNc1nc(-c2ccc3c(N)n[nH]c3c2)cc(N2C[C@@H](C(=O)NC3CCCCC3)CC[C@H]2C)n1
Summary of the method: as §1

[9] = compound: COC(=O)N[C@@H](C)CNc1nccc(-c2cn(C(C)C)nc2-c2cc(Cl)cc(NS(C)(=O)=O)c2F)n1 [encorafenib]
Summary of the method: as §1

[10] = compound: COC(=O)[C@H](CCSC)NC(=O)C1=C(C=C(C=C1)NC[C@H](CS)N)C2=CC=CC=C2
Summary of the method: as §1

[11] = compound: COC1=CC=C(C=C1)CN2C=CC3=C2C=C(C=C3)C(=O)NO
Summary of the method: as §1

[12] = compound: CON(C)C(=O)N1N=C(c2cc(F)ccc2F)S[C@@]1(CCCN)c1ccccc1 [filanesib]
Summary of the method: as §1

[13] = compound: CO[C@H]1C[C@@H]2CC[C@@H](C)[C@@](O)(O2)C(=O)C(=O)N2CCCC[C@H]2C(=O)O[C@H]([C@H](C)C[C@@H]2CC[C@H](n3cnnn3)[C@H](OC)C2)CC(=O)[C@H](C)/C=C(\C)[C@@H](O)[C@@H](OC)C(=O)[C@H](C)C[C@H](C)/C=C/C=C/C=C/1C [zotarolimus]
Summary of the method: as §1

[14] = compound: COc1cc(C(=O)O)ccc1NC(=O)[C@@H]1N[C@@H](CC(C)(C)C)[C@](C#N)(c2ccc(Cl)cc2F)[C@H]1c1cccc(Cl)c1F [idasanutlin]
Summary of the method: as §1

[15] = compound: COc1cc(Nc2ncc3c(n2)-c2ccc(Cl)cc2C(c2c(F)cccc2OC)=NC3)ccc1C(=O)O [alisertib]
Summary of the method: as §1

[16] = compound: COc1cc2nc(-c3cc(F)ccc3O)nc(N[C@@H]3CNC[C@H]3C(C)(C)O)c2cc1OC
Summary of the method: as §1

[17] = compound: COc1cc2ncnc(Nc3ccc(F)c(Cl)c3)c2cc1OCCCN1CCOCC1 [gefitinib]
Summary of the method: as §1

[18] = compound: COc1cccc2cc(-c3nc([C@H]4CC[C@H](C(=O)O)CC4)n4ncnc(N)c34)[nH]c12
Summary of the method: as §1

[19] = compound: CS(=O)(=O)CCNCc1ccc(-c2ccc3ncnc(Nc4ccc(OCc5cccc(F)c5)c(Cl)c4)c3c2)o1 [lapatinib]
Summary of the method: as §1

[20] = compound: CS(=O)(=O)N1CCN(Cc2cc3nc(-c4cccc5[nH]ncc45)nc(N4CCOCC4)c3s2)CC1 [pictilisib]
Summary of the method: as §1

Measured: log2 fold change

MESD (UniProt Q14696)
inactive: [1] 0.024 | [2] 0.021 | [3] 0.042 | [4] -0.032 | [5] -0.018 | [6] 0.013 | [7] -0.012 | [8] -0.033 | [9] -0.005 | [10] 0.016 | [11] -0.047 | [12] 0.005 | [13] -0.025 | [14] -0.008 | [15] -0.018 | [16] 0.024 | [17] 0.024 | [18] 0.016 | [19] -0.014 | [20] -0.016

MCRIP1 (UniProt I3L4Q0)
inactive: [1] 0.005 | [2] 0.039 | [3] -0.012 | [4] 0.016 | [5] -0.022 | [6] -0.024 | [7] 0.004 | [8] -0.107 | [9] -0.009 | [10] -0.012 | [11] -0.009 | [12] 0.025 | [13] 0 | [14] 0.045 | [15] 0.042 | [16] 0.013 | [17] -0.023 | [18] 0.06 | [19] -0.174 | [20] 0.03

MCM2 (UniProt P49736)
inactive: [1] 0.007 | [2] 0.003 | [3] -0.097 | [4] -0.006 | [5] 0.015 | [6] -0.102 | [7] -0.046 | [8] -0.026 | [9] -0.011 | [10] -0.011 | [11] 0.058 | [12] -0.065 | [13] 0.028 | [14] -0.07 | [15] -0.062 | [16] 0.044 | [17] 0.002 | [18] 0.016 | [19] -0.044 | [20] 0.01

MECR (UniProt Q9BV79)
inactive: [1] 0.077 | [2] 0.031 | [3] -0.069 | [4] 0.014 | [5] -0.016 | [6] -0.051 | [7] -0.007 | [8] 0.017 | [9] -0.012 | [10] 0.002 | [11] -0.042 | [12] -0.011 | [13] 0.053 | [14] -0.13 | [15] -0.012 | [16] 0.054 | [17] 0.008 | [18] 0.028 | [19] -0.017 | [20] 0.051

MBTPS1 (UniProt Q14703)
inactive: [1] 0.006 | [2] -0.046 | [3] -0.024 | [4] 0.036 | [5] 0.008 | [6] 0.038 | [7] 0.167 | [8] -0.044 | [9] -0.041 | [10] -0.057 | [11] -0.075 | [12] 0.089 | [13] 0.007 | [14] 0.003 | [15] -0.219 | [16] -0.036 | [17] 0.035 | [18] -0.037 | [19] 0.091 | [20] -0.017

MGAT2 (UniProt Q10469)
inactive: [1] -0.046 | [2] -0.017 | [3] -0.064 | [4] -0.02 | [5] 0.04 | [6] -0.072 | [7] -0.069 | [8] -0.013 | [9] 0.084 | [10] -0.038 | [11] -0.018 | [12] -0.113 | [13] 0.018 | [14] -0.076 | [15] -0.025 | [16] -0.036 | [17] 0.018 | [18] -0.032 | [19] -0.018 | [20] 0.086

MAZ isoform 2 (UniProt P56270)
inactive: [1] -0.118 | [2] -0.124 | [3] 0.28 | [4] -0.123 | [5] 0.017 | [6] 0.192 | [7] 0.28 | [8] 0.086 | [9] 0.073 | [10] -0.006 | [11] 0 | [12] 0.189 | [13] -0.038 | [14] 0.11 | [15] -0.201 | [16] -0.049 | [17] -0.042 | [18] -0.275 | [19] 0.048 | [20] 0.002

MCCC1 (UniProt Q96RQ3)
inactive: [1] -0.014 | [2] 0.004 | [3] -0.1 | [4] 0.019 | [5] 0.051 | [6] -0.027 | [7] -0.042 | [8] 0.074 | [9] 0.008 | [10] -0.037 | [11] -0.113 | [12] -0.012 | [13] 0.02 | [14] -0.179 | [15] 0 | [16] 0.004 | [17] 0.005 | [18] 0.011 | [19] 0.041 | [20] 0.041

MGAT1 (UniProt P26572)
inactive: [1] 0.033 | [2] 0.087 | [3] -0.006 | [4] 0.011 | [5] 0.083 | [6] -0.018 | [7] 0.159 | [8] -0.023 | [9] -0.144 | [10] -0.012 | [11] 0.034 | [12] 0.007 | [13] -0.034 | [14] -0.002 | [15] -0.058 | [16] 0.037 | [17] 0.029 | [18] 0.015 | [19] 0.009 | [20] 0.004

MED23 (UniProt Q9ULK4)
inactive: [1] 0.012 | [2] -0.098 | [3] -0.138 | [4] -0.019 | [5] 0.009 | [6] -0.013 | [7] -0.006 | [8] -0.058 | [9] 0.114 | [10] -0.048 | [11] -0.019 | [12] 0.003 | [13] -0.058 | [14] -0.007 | [15] -0.121 | [16] -0.065 | [17] 0.103 | [18] -0.013 | [19] 0.141 | [20] 0.002

MBD3 (UniProt O95983)
inactive: [1] 0.027 | [2] -0.087 | [3] -0.034 | [4] -0.05 | [5] 0.027 | [6] -0.062 | [7] 0.047 | [8] -0.051 | [9] 0.017 | [10] 0.036 | [11] -0.071 | [12] 0.023 | [13] 0.011 | [14] 0.03 | [15] -0.111 | [16] -0.084 | [17] -0.003 | [18] -0.008 | [19] 0.038 | [20] -0.005

MED4 (UniProt Q9NPJ6)
inactive: [1] 0.084 | [2] -0.082 | [3] -0.147 | [4] 0.021 | [5] -0.009 | [6] -0.052 | [7] 0.022 | [8] -0.058 | [9] 0.055 | [10] 0.019 | [11] 0.058 | [12] 0.04 | [13] 0.065 | [14] 0.039 | [15] -0.068 | [16] -0.02 | [17] -0.032 | [18] 0.032 | [19] 0.009 | [20] 0.061

METTL21A (UniProt Q8WXB1)
inactive: [1] 0.03 | [2] 0.03 | [3] -0.067 | [4] 0.03 | [5] -0.106 | [6] -0.094 | [7] -0.057 | [8] 0.043 | [9] -0.02 | [10] -0.003 | [11] -0.061 | [12] 0.011 | [13] 0.03 | [14] -0.117 | [15] -0.018 | [16] -0.124 | [17] 0.017 | [18] 0.08 | [19] 0.078 | [20] 0.034

MAT2B (UniProt Q9NZL9)
inactive: [1] 0.059 | [2] 0.05 | [3] 0.015 | [4] -0.003 | [5] -0.024 | [6] -0.021 | [7] -0.032 | [8] -0.032 | [9] -0.009 | [10] -0.008 | [11] -0.01 | [12] -0.013 | [13] -0.039 | [14] -0.051 | [15] -0.04 | [16] 0.044 | [17] -0.003 | [18] 0.074 | [19] -0.073 | [20] 0.013

MCUB (UniProt Q9NWR8)
inactive: [1] 0.009 | [2] 0.014 | [3] -0.014 | [4] 0.022 | [5] -0.024 | [6] -0.02 | [7] 0.005 | [8] -0.015 | [9] 0.058 | [10] -0.018 | [11] -0.055 | [12] -0.105 | [13] 0.161 | [14] 0.019 | [15] 0.086 | [16] 0.01 | [17] 0.203 | [18] -0.133 | [19] -0.008 | [20] 0.062

MERTK (UniProt Q12866)
inactive: [1] -0.164 | [2] -0.029 | [3] 0.081 | [4] -0.083 | [5] -0.026 | [6] -0.02 | [7] 0.032 | [8] -0.077 | [9] 0.054 | [10] 0.107 | [11] -0.021 | [12] -0.158 | [13] -0.025 | [14] -0.026 | [15] -0.074 | [16] -0.059 | [17] 0.059 | [18] 0.015 | [19] 0.127

Reprinted at random: two records from the list.
MCUB (UniProt Q9NWR8)
inactive: [1] 0.009 | [2] 0.014 | [3] -0.014 | [4] 0.022 | [5] -0.024 | [6] -0.02 | [7] 0.005 | [8] -0.015 | [9] 0.058 | [10] -0.018 | [11] -0.055 | [12] -0.105 | [13] 0.161 | [14] 0.019 | [15] 0.086 | [16] 0.01 | [17] 0.203 | [18] -0.133 | [19] -0.008 | [20] 0.062

MAT2B (UniProt Q9NZL9)
inactive: [1] 0.059 | [2] 0.05 | [3] 0.015 | [4] -0.003 | [5] -0.024 | [6] -0.021 | [7] -0.032 | [8] -0.032 | [9] -0.009 | [10] -0.008 | [11] -0.01 | [12] -0.013 | [13] -0.039 | [14] -0.051 | [15] -0.04 | [16] 0.044 | [17] -0.003 | [18] 0.074 | [19] -0.073 | [20] 0.013
